From patent publication US5213978A, “Protease from Micrococcus sedentarius for degrading protein of human callus or corn tissue” (Scholl Plc, priority 1990, dated 1993)
The name of at least one read-out is uncertain.

Test system: Micrococcus sedentarius NCIMB 40287
Assay: Antibiotic sensitivities by the disc method
Assay type: cell-based
Conditions: disc amount as printed per antibiotic (1 unit, 5-30 μg)

For `COc1cccc(OC)c1C(=O)N[C@@H]1C(=O)N2[C@@H]1SC(C)(C)[C@@H]2C(=O)O` [Methicillin], the Antibiotic sensitivity was “R”.
